Assay results reported in the supplement of paper PMC12823440, “Inhibitors supercharge kinase turnover through native proteolytic circuits” (Nature, 2025).
Some of the results follow. The calls rarely recur for the same compound in another form.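 Kinases were expressed as nanoluciferase fusions in K562 cells and luminescence was read every 4 h between 2 and 18 h as percent of control, DMSO set to 100% and a positive control to 0%. A time point counts as decreased when the signal drops significantly (2 sigma). The hit call is the authors' own, does not follow from the count of time points alone, and its rule is not shown.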

Sequences of proteins named here, by UniProt entry; tags and fusion partners are left off. A change or cut given only in a name is not applied to a line headed by its entry.
UniProt Q9Y616: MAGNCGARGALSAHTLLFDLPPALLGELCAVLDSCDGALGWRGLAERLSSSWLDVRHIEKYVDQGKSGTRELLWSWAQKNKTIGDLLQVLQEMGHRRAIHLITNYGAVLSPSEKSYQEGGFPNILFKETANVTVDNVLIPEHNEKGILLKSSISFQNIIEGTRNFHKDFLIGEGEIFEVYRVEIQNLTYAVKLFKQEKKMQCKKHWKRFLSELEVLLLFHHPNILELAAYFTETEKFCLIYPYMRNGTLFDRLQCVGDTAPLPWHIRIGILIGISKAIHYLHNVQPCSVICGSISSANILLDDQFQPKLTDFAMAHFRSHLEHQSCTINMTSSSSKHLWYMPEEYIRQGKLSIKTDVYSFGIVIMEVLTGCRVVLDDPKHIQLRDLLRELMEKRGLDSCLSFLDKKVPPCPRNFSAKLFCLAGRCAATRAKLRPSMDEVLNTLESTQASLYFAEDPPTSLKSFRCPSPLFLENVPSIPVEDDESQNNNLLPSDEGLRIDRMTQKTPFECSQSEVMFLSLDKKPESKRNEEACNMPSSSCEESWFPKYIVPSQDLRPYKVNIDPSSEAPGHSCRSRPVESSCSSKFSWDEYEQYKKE
UniProt P06239: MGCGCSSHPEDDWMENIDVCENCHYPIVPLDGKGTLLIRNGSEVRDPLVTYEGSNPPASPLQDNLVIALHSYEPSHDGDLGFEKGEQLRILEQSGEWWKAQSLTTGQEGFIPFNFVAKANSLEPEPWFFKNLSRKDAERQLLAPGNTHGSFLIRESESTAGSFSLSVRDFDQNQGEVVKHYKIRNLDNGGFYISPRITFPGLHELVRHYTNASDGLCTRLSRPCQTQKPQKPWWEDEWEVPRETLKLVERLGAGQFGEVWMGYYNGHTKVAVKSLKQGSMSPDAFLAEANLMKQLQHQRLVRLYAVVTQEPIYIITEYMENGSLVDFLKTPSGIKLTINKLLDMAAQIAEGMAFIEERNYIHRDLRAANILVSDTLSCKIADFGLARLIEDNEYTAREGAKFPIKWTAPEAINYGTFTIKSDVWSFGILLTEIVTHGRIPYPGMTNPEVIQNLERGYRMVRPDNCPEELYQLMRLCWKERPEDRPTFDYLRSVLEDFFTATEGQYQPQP
UniProt P53667: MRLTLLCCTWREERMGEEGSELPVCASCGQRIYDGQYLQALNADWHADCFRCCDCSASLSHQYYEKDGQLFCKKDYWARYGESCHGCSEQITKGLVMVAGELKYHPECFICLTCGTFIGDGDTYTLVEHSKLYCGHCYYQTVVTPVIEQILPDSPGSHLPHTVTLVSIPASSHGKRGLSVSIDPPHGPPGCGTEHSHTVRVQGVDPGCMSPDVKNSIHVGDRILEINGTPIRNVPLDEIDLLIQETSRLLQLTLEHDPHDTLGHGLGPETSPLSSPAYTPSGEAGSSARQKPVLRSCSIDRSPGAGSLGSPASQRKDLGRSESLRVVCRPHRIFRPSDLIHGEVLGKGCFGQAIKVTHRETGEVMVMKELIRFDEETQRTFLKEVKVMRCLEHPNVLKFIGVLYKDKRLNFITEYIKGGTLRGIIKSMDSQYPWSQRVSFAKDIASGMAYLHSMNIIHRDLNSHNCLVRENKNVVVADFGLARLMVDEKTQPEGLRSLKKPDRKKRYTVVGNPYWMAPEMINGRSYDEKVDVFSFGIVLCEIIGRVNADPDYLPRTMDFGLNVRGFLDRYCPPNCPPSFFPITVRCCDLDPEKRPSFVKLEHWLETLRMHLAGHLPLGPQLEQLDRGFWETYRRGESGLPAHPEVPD
UniProt P07948: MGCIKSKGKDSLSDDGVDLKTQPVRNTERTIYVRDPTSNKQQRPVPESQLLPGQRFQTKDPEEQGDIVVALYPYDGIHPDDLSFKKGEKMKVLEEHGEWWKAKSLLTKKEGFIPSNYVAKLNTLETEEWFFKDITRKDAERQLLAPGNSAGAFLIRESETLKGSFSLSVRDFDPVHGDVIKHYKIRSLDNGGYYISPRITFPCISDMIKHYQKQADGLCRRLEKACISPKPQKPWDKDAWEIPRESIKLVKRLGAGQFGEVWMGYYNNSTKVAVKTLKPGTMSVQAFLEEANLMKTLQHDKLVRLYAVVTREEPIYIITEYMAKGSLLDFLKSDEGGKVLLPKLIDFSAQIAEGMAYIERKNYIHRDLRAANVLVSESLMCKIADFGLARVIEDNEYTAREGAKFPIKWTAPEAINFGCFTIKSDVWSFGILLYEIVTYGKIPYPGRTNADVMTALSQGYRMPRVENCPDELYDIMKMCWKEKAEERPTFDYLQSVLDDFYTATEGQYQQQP
UniProt Q12851: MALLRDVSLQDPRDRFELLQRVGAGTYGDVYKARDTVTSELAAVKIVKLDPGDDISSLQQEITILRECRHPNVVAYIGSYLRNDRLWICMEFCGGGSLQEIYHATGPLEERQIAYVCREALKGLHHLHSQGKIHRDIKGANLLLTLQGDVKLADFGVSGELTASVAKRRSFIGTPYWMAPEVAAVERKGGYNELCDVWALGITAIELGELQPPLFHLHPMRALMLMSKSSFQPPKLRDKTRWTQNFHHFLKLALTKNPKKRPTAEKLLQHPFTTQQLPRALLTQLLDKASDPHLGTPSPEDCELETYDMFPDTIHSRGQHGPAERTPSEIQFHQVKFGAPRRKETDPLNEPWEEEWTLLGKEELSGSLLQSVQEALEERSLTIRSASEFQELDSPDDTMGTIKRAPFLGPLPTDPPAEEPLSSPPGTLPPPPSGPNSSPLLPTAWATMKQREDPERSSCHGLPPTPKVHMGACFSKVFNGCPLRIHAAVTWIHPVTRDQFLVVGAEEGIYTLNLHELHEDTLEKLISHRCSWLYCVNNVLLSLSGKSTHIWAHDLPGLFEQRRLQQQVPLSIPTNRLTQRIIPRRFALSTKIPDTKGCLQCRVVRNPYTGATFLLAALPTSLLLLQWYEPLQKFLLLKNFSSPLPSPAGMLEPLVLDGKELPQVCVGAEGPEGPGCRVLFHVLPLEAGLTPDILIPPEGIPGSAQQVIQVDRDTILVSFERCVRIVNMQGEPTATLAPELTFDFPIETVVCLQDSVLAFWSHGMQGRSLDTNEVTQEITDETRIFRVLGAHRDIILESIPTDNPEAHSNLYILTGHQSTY
UniProt P28482, whole entry: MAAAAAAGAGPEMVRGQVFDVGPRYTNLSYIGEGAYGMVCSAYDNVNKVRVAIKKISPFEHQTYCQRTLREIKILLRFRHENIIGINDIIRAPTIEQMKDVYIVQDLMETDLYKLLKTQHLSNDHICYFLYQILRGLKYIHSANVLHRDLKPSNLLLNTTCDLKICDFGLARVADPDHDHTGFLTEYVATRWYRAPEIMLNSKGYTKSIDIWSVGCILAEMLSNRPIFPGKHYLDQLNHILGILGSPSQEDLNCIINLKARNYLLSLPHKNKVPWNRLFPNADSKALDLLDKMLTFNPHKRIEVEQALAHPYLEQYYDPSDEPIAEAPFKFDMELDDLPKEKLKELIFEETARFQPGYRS
UniProt P31152, whole entry: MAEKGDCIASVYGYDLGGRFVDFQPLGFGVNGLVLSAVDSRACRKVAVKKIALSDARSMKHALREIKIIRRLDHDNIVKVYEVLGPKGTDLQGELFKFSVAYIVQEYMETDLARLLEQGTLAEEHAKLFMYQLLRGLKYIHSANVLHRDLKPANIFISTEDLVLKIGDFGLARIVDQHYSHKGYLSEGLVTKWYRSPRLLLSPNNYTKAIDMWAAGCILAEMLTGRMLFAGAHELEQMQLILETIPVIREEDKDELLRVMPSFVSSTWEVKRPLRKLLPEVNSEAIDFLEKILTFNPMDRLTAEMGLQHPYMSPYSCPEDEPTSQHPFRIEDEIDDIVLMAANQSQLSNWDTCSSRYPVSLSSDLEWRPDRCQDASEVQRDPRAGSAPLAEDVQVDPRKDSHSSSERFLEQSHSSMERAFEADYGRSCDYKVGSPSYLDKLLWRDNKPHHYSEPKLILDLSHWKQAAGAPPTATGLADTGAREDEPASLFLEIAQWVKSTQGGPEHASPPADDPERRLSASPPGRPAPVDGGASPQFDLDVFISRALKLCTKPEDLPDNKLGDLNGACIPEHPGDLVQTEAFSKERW
UniProt P49137, whole entry, looked up: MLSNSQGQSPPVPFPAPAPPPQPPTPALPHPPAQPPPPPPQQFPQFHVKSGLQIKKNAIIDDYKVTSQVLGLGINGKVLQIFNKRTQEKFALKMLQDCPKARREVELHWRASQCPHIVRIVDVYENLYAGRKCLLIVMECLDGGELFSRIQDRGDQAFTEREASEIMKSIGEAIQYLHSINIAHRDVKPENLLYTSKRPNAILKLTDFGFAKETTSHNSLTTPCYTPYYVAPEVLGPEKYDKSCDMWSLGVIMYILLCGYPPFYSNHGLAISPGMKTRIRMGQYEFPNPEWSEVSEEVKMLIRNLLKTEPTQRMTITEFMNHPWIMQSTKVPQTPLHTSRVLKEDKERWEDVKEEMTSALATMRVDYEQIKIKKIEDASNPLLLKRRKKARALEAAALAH
UniProt Q9BUB5: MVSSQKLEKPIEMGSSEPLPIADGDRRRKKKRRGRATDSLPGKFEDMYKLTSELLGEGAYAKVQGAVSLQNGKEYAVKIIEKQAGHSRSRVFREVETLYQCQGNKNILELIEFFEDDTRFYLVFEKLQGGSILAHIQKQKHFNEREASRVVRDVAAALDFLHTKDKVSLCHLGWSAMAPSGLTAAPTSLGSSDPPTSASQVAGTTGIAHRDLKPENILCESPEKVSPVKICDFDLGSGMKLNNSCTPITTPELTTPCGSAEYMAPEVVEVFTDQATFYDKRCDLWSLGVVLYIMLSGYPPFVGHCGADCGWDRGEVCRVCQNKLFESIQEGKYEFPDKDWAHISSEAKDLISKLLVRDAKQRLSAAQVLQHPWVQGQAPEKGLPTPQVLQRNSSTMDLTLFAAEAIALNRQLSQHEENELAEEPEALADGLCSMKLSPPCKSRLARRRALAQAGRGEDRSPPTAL
UniProt O96013: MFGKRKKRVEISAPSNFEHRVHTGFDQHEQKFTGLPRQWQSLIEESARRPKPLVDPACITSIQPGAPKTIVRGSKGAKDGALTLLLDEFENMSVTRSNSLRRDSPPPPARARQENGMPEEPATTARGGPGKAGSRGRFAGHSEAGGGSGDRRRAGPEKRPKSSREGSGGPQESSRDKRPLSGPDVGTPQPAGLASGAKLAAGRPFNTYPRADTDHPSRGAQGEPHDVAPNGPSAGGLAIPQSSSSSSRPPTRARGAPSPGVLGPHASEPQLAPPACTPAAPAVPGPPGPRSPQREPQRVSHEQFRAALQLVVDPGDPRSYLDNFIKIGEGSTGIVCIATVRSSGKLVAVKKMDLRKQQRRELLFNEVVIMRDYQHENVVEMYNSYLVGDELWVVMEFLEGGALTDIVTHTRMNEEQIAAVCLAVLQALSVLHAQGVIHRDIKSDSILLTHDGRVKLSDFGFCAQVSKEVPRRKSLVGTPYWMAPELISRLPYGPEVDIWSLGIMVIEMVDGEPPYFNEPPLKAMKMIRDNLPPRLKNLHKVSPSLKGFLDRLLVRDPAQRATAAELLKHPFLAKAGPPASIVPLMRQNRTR
UniProt P09619, whole entry: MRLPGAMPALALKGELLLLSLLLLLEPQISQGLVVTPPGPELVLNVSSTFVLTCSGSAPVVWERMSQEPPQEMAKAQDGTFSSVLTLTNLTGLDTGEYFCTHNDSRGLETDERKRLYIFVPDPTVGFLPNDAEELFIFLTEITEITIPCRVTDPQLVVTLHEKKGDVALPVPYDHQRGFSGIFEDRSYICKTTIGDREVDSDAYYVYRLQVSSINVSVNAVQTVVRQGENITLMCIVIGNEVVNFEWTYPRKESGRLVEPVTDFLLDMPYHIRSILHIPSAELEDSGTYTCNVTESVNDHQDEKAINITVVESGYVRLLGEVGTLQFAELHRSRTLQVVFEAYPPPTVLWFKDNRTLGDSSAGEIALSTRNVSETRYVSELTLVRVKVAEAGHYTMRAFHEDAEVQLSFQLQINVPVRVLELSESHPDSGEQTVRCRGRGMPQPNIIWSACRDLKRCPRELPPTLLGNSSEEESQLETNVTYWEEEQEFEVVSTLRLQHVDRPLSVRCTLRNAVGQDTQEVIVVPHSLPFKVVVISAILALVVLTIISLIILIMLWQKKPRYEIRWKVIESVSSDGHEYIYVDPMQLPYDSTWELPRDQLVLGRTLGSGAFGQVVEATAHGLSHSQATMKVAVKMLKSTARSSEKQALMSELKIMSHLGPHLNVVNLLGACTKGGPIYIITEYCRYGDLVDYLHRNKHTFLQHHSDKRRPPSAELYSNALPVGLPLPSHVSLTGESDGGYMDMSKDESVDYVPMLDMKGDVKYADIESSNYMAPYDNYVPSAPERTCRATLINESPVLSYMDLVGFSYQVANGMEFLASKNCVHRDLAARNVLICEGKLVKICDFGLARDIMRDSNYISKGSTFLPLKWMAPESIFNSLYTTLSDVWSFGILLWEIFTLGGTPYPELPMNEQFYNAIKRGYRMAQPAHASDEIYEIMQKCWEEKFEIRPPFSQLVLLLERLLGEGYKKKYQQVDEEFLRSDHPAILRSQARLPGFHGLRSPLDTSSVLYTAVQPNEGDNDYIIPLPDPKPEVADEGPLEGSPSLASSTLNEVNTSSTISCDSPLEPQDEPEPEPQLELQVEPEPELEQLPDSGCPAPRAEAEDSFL

Columns and labels:
Assay in all cases: kinase-Nluc reporter destabilization hit call (1 = scored as downregulated) (binary); higher = compound decreases kinase abundance
Details in all cases: K562; 2-18 h
[1] = biological target: IRAK3 (UniProt Q9Y616)
[2] = biological target: JAK1 (UniProt P23458)
[3] = biological target: LCK (UniProt P06239)
[4] = biological target: LIMK1 (UniProt P53667)
[5] = biological target: LIMK2 (UniProt P53671)
[6] = biological target: LMTK2 (UniProt Q8IWU2)
[7] = biological target: LYN (UniProt P07948)
[8] = biological target: MAP2K1 (UniProt Q02750)
[9] = biological target: MAP2K2 (UniProt P36507)
[10] = biological target: MAP4K2 (UniProt Q12851)
[11] = biological target: MAPK1 (UniProt P28482)
[12] = biological target: MAPK4 (UniProt P31152)
[13] = biological target: MAPKAPK2 (UniProt P49137)
[14] = biological target: MKNK1 (UniProt Q9BUB5)
[15] = biological target: NTRK2 (UniProt Q16620)
[16] = biological target: NTRK3 (UniProt Q16288)
[17] = biological target: PAK4 (UniProt O96013)
[18] = biological target: PBK (UniProt Q96KB5)
[19] = biological target: PDGFRB (UniProt P09619)
[20] = biological target: PDK1 (UniProt Q15118)

Measured: kinase-Nluc reporter destabilization hit call

Cn1cc(-c2cc(Oc3cc(F)c(NC(=O)C4(C(=O)Nc5ccccc5)CC4)cc3F)ccn2)cn1 (2.5 µM)
inactive: [1] 0 | [2] 0 | [3] 0 | [4] 0 | [5] 0 | [6] 0 | [7] 0 | [8] 0 | [9] 0 | [10] 0 | [11] 0 | [12] 0 | [13] 0 | [14] 0 | [15] 0 | [16] 0 | [17] 0 | [18] 0 | [19] 0 | [20] 0

CN1CCN(c2ccc(Nc3ncc4cc(C#N)c(=O)n(C5CCCC5)c4n3)cc2)CC1 (10 µM)
inactive: [1] 0 | [2] 0 | [3] 0 | [4] 0 | [5] 0 | [6] 0 | [7] 0 | [8] 0 | [9] 0 | [10] 0 | [11] 0 | [12] 0 | [13] 0 | [14] 0 | [15] 0 | [16] 0 | [17] 0 | [18] 0 | [19] 0 | [20] 0

Cc1c(C)c(NCC(=O)N(C)C2CCN(Cc3ccc(C(N)=O)cc3)CC2)c(C)c(C)c1N (10 µM)
inactive: [1] 0 | [2] 0 | [3] 0 | [4] 0 | [5] 0 | [6] 0 | [7] 0 | [8] 0 | [9] 0 | [10] 0 | [11] 0 | [12] 0 | [13] 0 | [14] 0 | [15] 0 | [16] 0 | [17] 0 | [18] 0 | [19] 0 | [20] 0

Nc1ncc(-c2ccnc(Nc3ccncc3)n2)c(CC2CC2)n1 (10 µM)
inactive: [1] 0 | [2] 0 | [3] 0 | [4] 0 | [5] 0 | [6] 0 | [7] 0 | [8] 0 | [9] 0 | [10] 0 | [11] 0 | [12] 0 | [13] 0 | [14] 0 | [15] 0 | [16] 0 | [17] 0 | [18] 0 | [19] 0 | [20] 0

O=C(Nc1cc(Cl)cc2c1[nH]c1cnccc12)c1cccnc1 (10 µM)
inactive: [1] 0 | [2] 0 | [3] 0 | [4] 0 | [5] 0 | [6] 0 | [7] 0 | [8] 0 | [9] 0 | [10] 0 | [11] 0 | [12] 0 | [13] 0 | [14] 0 | [15] 0 | [16] 0 | [17] 0 | [18] 0 | [19] 0 | [20] 0

C=C1CCC[C@]2(C)C=C3OC(=O)C(C)=C3C[C@@H]12 [Atractylenolide I] (10 µM)
inactive: [1] 0 | [2] 0 | [3] 0 | [4] 0 | [5] 0 | [6] 0 | [7] 0 | [8] 0 | [9] 0 | [10] 0 | [11] 0 | [12] 0 | [13] 0 | [14] 0 | [15] 0 | [16] 0 | [17] 0 | [18] 0 | [19] 0 | [20] 0

C[C@@H]1O[C@@H](Oc2cc(O)c3c(=O)c(O[C@@H]4O[C@@H](C)[C@H](O)[C@@H](O)[C@H]4O)c(-c4ccc(O)cc4)oc3c2)[C@H](O)[C@H](O)[C@H]1O [Kaempferitrin] (10 µM)
inactive: [1] 0 | [2] 0 | [3] 0 | [4] 0 | [5] 0 | [6] 0 | [7] 0 | [8] 0 | [9] 0 | [10] 0 | [11] 0 | [12] 0 | [13] 0 | [14] 0 | [15] 0 | [16] 0 | [17] 0 | [18] 0 | [19] 0 | [20] 0

NCC1CCC(CNc2nc(NCc3ccccc3OC(F)(F)F)ncc2[N+](=O)[O-])CC1 (stereo not given) [PKC-theta inhibitor] (10 µM)
active: [4] 1
inactive: [1] 0 | [2] 0 | [3] 0 | [5] 0 | [6] 0 | [7] 0 | [8] 0 | [9] 0 | [10] 0 | [11] 0 | [12] 0 | [13] 0 | [14] 0 | [15] 0 | [16] 0 | [17] 0 | [18] 0 | [19] 0 | [20] 0

Reprinted at random: 2 records from the list, in no set order.
O=C(Nc1cc(Cl)cc2c1[nH]c1cnccc12)c1cccnc1 (10 µM)
inactive: [1] 0 | [2] 0 | [3] 0 | [4] 0 | [5] 0 | [6] 0 | [7] 0 | [8] 0 | [9] 0 | [10] 0 | [11] 0 | [12] 0 | [13] 0 | [14] 0 | [15] 0 | [16] 0 | [17] 0 | [18] 0 | [19] 0 | [20] 0

NCC1CCC(CNc2nc(NCc3ccccc3OC(F)(F)F)ncc2[N+](=O)[O-])CC1 (stereo not given) [PKC-theta inhibitor] (10 µM)
active: [4] 1
inactive: [1] 0 | [2] 0 | [3] 0 | [5] 0 | [6] 0 | [7] 0 | [8] 0 | [9] 0 | [10] 0 | [11] 0 | [12] 0 | [13] 0 | [14] 0 | [15] 0 | [16] 0 | [17] 0 | [18] 0 | [19] 0 | [20] 0

Further compounds follow.

O=Nc1c(-c2c(O)[nH]c3cc(Br)ccc23)[nH]c2ccccc12 [GSK 3 Inhibitor IX] (2.5 µM)
inactive: [1] 0 | [2] 0 | [3] 0 | [4] 0 | [5] 0 | [6] 0 | [7] 0 | [8] 0 | [9] 0 | [10] 0 | [11] 0 | [12] 0 | [13] 0 | [14] 0 | [15] 0 | [16] 0 | [17] 0 | [18] 0 | [19] 0 | [20] 0

CO[C@H]1CC[C@H](N2C(=O)CNc3ncc(-c4ccc(C(C)(C)O)nc4)nc32)CC1 (2.5 µM)
inactive: [1] 0 | [2] 0 | [3] 0 | [4] 0 | [5] 0 | [6] 0 | [7] 0 | [8] 0 | [9] 0 | [10] 0 | [11] 0 | [12] 0 | [13] 0 | [14] 0 | [15] 0 | [16] 0 | [17] 0 | [18] 0 | [19] 0 | [20] 0

COc1cc2c(cc1OC)/C(=C/c1ccc(O)cc1)C(=O)N2 (10 µM)
inactive: [1] 0 | [2] 0 | [3] 0 | [4] 0 | [5] 0 | [6] 0 | [7] 0 | [8] 0 | [9] 0 | [10] 0 | [11] 0 | [12] 0 | [13] 0 | [14] 0 | [15] 0 | [16] 0 | [17] 0 | [18] 0 | [19] 0 | [20] 0

CN(C)c1ccc(-c2nc3ncc(Cl)c(N4CCN(CC(=O)Nc5nccs5)CC4)c3[nH]2)cc1 (2 µM)
inactive: [1] 0 | [2] 0 | [3] 0 | [4] 0 | [5] 0 | [6] 0 | [7] 0 | [8] 0 | [9] 0 | [10] 0 | [11] 0 | [12] 0 | [13] 0 | [14] 0 | [15] 0 | [16] 0 | [17] 0 | [18] 0 | [19] 0 | [20] 0

COC(=O)Nc1ccc(-c2nc(N3CCOCC3)c3cnn(C4CCN(Cc5cccnc5)CC4)c3n2)cc1 (10 µM)
inactive: [1] 0 | [2] 0 | [3] 0 | [4] 0 | [5] 0 | [6] 0 | [7] 0 | [8] 0 | [9] 0 | [10] 0 | [11] 0 | [12] 0 | [13] 0 | [14] 0 | [15] 0 | [16] 0 | [17] 0 | [18] 0 | [19] 0 | [20] 0

Fc1ccc2[nH]ccc2c1-c1nc(N2CCOCC2)c2sc(CN3CCN(CC4CC4)CC3)cc2n1 (10 µM)
inactive: [1] 0 | [2] 0 | [3] 0 | [4] 0 | [5] 0 | [6] 0 | [7] 0 | [8] 0 | [9] 0 | [10] 0 | [11] 0 | [12] 0 | [13] 0 | [14] 0 | [15] 0 | [16] 0 | [17] 0 | [18] 0 | [19] 0 | [20] 0

COC(=O)/C=C/c1ccccc1 [Methyl cinnamate] (10 µM)
inactive: [1] 0 | [2] 0 | [3] 0 | [4] 0 | [5] 0 | [6] 0 | [7] 0 | [8] 0 | [9] 0 | [10] 0 | [11] 0 | [12] 0 | [13] 0 | [14] 0 | [15] 0 | [16] 0 | [17] 0 | [18] 0 | [19] 0 | [20] 0

CO[C@H]1C[C@@H]2CC[C@@H](C)[C@@](O)(O2)C(=O)C(=O)N2CCCC[C@H]2C(=O)O[C@H]([C@H](C)C[C@@H]2CC[C@@H](OC(=O)C(C)(CO)CO)[C@H](OC)C2)CC(=O)[C@H](C)/C=C(\C)[C@@H](O)[C@@H](OC)C(=O)[C@H](C)C[C@H](C)/C=C/C=C/C=C/1C [Temsirolimus] (2.5 µM)
inactive: [1] 0 | [2] 0 | [3] 0 | [4] 0 | [5] 0 | [6] 0 | [7] 0 | [8] 0 | [9] 0 | [10] 0 | [11] 0 | [12] 0 | [13] 0 | [14] 0 | [15] 0 | [16] 0 | [17] 0 | [18] 0 | [19] 0 | [20] 0

COc1cc(-c2oc3cc(O)cc(O)c3c(=O)c2O)ccc1O [Isorhamnetin] (10 µM)
inactive: [1] 0 | [2] 0 | [3] 0 | [4] 0 | [5] 0 | [6] 0 | [7] 0 | [8] 0 | [9] 0 | [10] 0 | [11] 0 | [12] 0 | [13] 0 | [14] 0 | [15] 0 | [16] 0 | [17] 0 | [18] 0 | [19] 0 | [20] 0
